These are yes or no findings as the source states them, for the method shown. In cells and extracts the contact can be indirect. For part of these data: Binding can be weak; no strength is given. For part of these data: Tags and fused reporters may be left off the sequences shown.
B1: V5-tagged Expanded (protein, UniProt Q07436 1-1427)
chain: MRAFCTVSAPLEVCASSAEQLSPGSRFLALRLLGQQQPKTLYFLVDAKSRVREVYTQTCLHFATQGMLDTELFGLAVLIDGEYMFADPESKLSKYGPKSWRSSHTHGLDANGRPLLELHFRVQFYIESPFMLKDETSRHNYYLQLRHNILQRDLPREQAEQALVFLAGLALQADLGDAPPGTSNSKDDSGEETSASPSNGGRGLSATTTLPKISKRANERMLRLSTYVASTSKRETIPLPPSLPPNGADYYRIEDYLPSGLHTPWARSAMRACHREHLGMATAEAELLYIQQACSLHETINAHTYRMRLAKSEQGSGSAWFVVYAKGIKILGGESTNSSSNPETTTFLWPNITKLSFERKKFEIRSGESRITLYAASDEKNKLLLTLCKDTHQWSMKLAARLKEVSKREEEEAAESQRLHASYACSRSLLLPYKSKNEQRISVISSTSSNTTSGIVSDRVHSEDELEIMINTPPAPLAAPSTESLALAHLLDRPSVSRQTSSVGQMSLKDLEEQLAALSVRPQDASSNGATIVTNSSVQRNSMGTTANDSSTATDSPSSQHNIGSQCSSTCSTVVVTSPVNGAGASSSGAPIPVHSTSSSLELGFSHTAQNSALSETSPDDFLSTSAREETESVSGASGVYTLAHGAPPTETSGVYTMHSSELTGQSSEIAESEKSSHYGMFQPQKLEETHVQHSDSVDGKKKEDFRPRSDSNVSTGSSFRGDGSDPTDNKHSLLSAEELTNLIVGRGTYPSRKTVSSSLHSDCDYVTLPLGDQGEEEVDQPPAPPPPYSARHEKTGLCGPPIAKPIPKPIAVVAPKPDSPPCSPPVPPAPIPAPPPAIRRRDPPPYSISSKPRPTSLISVSSSAHPAPSAAGSMSSLKSEEVTARFITTRPQISILKAHTSLIPDGAKPSYAAPHHCSSVASSNGSVCSHQLSQQSLHNSNYAGGSQASLHHHHVPSHHRHSGSAAIGIVPYGLHKSTASLHHQQSCVLLPVIKPRQFLAPPPPSLPRQPPPPPPPNHPHLASHLYEREMARKQLELYQQQLYSDVDYVIYPIQDPAVSQQEYLDAKQGSLLAAMAQAAPPPPHHPYLAMQVSPAIYRSTPYLPLTLSTHSRYASTQNLSDTYVQLPGPGYSPLYSPSMASLCSSYEPPPPPPLHPAALAAAAAAGAGSSSSSMFARSRSDDNILNSLDLLPKGKRLPPPPPPPYVNRRLKKPPMPAPSEKPPPIPSKPIPSRMSPIPPRKPPTLNPHHANSPLTKTSSGAQWAGERPRPDLGLGLGLNRGNNSILAQLQASMVAQSHAQAQAQALDIALLREKSKHLDLPLISALCNDRSLLKQTKVVINPKTGQEMPTSSAQPSGATTNGVANSSAGAGTLSKARKGSTVSHRHPQDKLPPLPVQQLAEANNYVIDPAVMMKQQQQQQQHNKTS
B2: Kibra (endogenous, embryos) (protein, UniProt Q9VFG8 1-1288)
chain: MPNLQQTASQSQHHLHPHHLRPQQQQQQHHHHHQQQQQQQHTHHQQQQQHHSDFPLPDGWDIAKDFDGKTYYIDHINKKTTWLDPRDCYTKPQTFEDCVGDELPMGWEESYDPNIGPYYINHLAQSTQLEDPRQEWKTVQEQMLSDYLSAAQDQLENKREMFDVKQQRLLWAQEEYNHLKLAASRSSLCSSSSSMSRHDPELLRADLMLARERVHQLKQELTHITNDISYTERGMNTLYSVGEKINARENGCYDIAEVHAIREEMLKVHKSLVSGEKVREELMRSLVQIKNELGRQQISEENSDLASPFDRVCVASQTDLCGSSGENLNGGARFAEMAKTKWQYAEWRKHIKKLQQQLADHVERIEPGQLESDKDRILLIQEKEKLLNDLNSISLKSRSEEEKRVIHQTRHKLEEDLKEAYEANNTCVANRLRFHEEKQLLLDKLQEALKSTKLLEERLKSFSSESTFSISSGSSLGSLSTASSKSALSFTDIYIDPFAVDSPIDVVDLRRRSQRLFQQHQQQRLHPVHPVLQQQQSAEVTLSPRSSLSMETPPASPMKYNAGADQTPQALKEEPTYANALPAPPAYTAPPPVPISGVRARPYDLDSTVLDCMMLEAKLQKLNMGTPLNLAVAPLSPISEKPSLLDLPQEMLSRSSSTSNTRSVSAAVSNESVAGDSGVFEASRAHLPRKELAQVQIGLKYLKQEGVLVVSLERANNLLALWTASADNSQVYLRAALLPNSLTSIRTKALGDFQKPVFNDTFAVPITLDKLLTKSLQVTVVTMTGQKEEIIGTVQISMAEFNPEDSTLKWYNVLSSKFIPSFESLDIPSTSAAAAAAAVAASNAPNPGNNREESSDESTITSSQTSTLTRNQAPCMELQEQMAAELLGLGPLNEPECSDDDDDDEEEELDDKQLVSDVGLMNSSSMLHAYLQNMKQEFADKETNTDRAYLPEKSRGQSQLMDDRPVKRSQTFTPSEAFSKNRYNCRLNRSDSDSAMHCGVAPHTFQRGAAERRSLRFHSKAPKSVTKLHHTHIPRTSLDLELDLQAQHSKLYFLNDQIAKLQNLKEVLQKACENKDPLVAAWAIENEEFQRLVARADPAKCPEERQLQKLLMKTAKEIHKLRKTKVPKGCPDLVSFKEKITFFTRKGLSVPELPSEFTLPEANPIEEEEEEEDENEFYNSAETAIAINTALVASSNRNKNLSEHPHRATSGAVPKIPAPVVTPAATPAATPAATPAATSAATPAATPVVSPAAQPDAKPADAPIPVASNDAEQQRFDYVVDRNYGVEV
B3: Merlin (endogenous, embryos) (protein, UniProt Q24564 1-635)
chain: MSPFGSKKNRSLSVRVSTFDSELEFKLEPRASGQDLFDLVCRTIGLRESWYFGLQYVDTRSNVSWLKMEKRVRDQRVELHASNNVYVFSFYAKFFPENVSEELIQEITQHLFFLQVKQSILSMDIYCRPEASVLLASYAVHVQYGPYDYETYKDGMLAGGELLPKGVTDQYQMTPEMWEERIKTWYMDHEPMTRDEVEMEYLKIAQDLDMYGVNYFPITNKNKTKLWLGVTSVGLNIYDERDKLTPKTTFQWNEIRHVSFDDKKFTIRLVDAKVSNFIFYSQDLHINKMILDLCKGNHDLYMRRRKPDTMEIQQMKAQAKEEKQRRQIERKKFIREKKLREKAEHERYELEKSMEHLQNEMRMANDALRRSEETKELYFEKSRVNEEQMQLTECKANHFKTEMDRLRERQMKIEREKHDLEKKIRDADFYVHQLTVENDKREAETEKLRKELICAKMAEREATARLLEFLNSGRKSSTDSLLTASSVSHAANTASSMAAISTPSLITSSSTNDLETAGGAELTTHSSHYLVQGDNSSGISDDFEPKEFILTDNEMEQITNEMERNHLDYLRNSKQVQSQLQTLRSEIAPHKIEENQSNLDILSEAQIKAGENKYSTLKKLKSGSTKARVAFFEEL

Legend:
[1] = target: Karst isoform A; aa 1904-2632 (Drosophila); experiment: co-IP; Drosophila S2 cell extracts; FLAG-tagged proteins purified on anti-FLAG M2 agarose and eluted with FLAG peptide in lysis buffer (50 mM Tris pH 7.5, 150 mM NaCl, 1% Triton X-100, 10% glycerol, 1 mM EDTA); blots with anti-FLAG, anti-V5, anti-α-Spectrin
[2] = target: Karst isoform A; aa 2594-4097 (Drosophila); experiment: as above
[3] = target: FLAG-tagged N-terminal region of Karst/βH-Spectrin (Karst isoform A; aa 1-1632) (Drosophila); experiment: as above
[4] = target: Karst isoform A; aa 1633-1903 (Drosophila); experiment: as above
[5] = target: Karst YFP knock-in (Drosophila (endogenous in embryos)); experiment: co-IP; Lysates of Karst YFP knock-in embryos (Wiso embryos also collected); GFP Trap-M beads; 10 mM Tris pH 7.5, 150 mM NaCl, 0.5% NP-40, 0.5 mM EDTA; blots with anti-GFP, anti-Merlin, anti-α-Spectrin, anti-Kibra

binding [1] | binding [2] | binding [3] | binding [4] | binding [5] | Binder
no binding | no binding | binds | no binding | – | B1
– | – | – | – | binds | B2
– | – | – | – | binds | B3

— PMC4388601
